Reference: PubChem BioAssay AID1224830 (NIAID, 2016)
The whole screen tested about 18,000 reagents; below is a part drawn at random. In the full data, about 2,900 (16%) got an active call. 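Calls are made per well; low scores hint the gene aids the LPS response, high scores that it dampens it.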 Unmarked entries are inactive. Repeated entries: four replicate wells of each siRNA pool.

Test: 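Genes whose knock-down alters the TNF-alpha reporter response to LPS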 (primary screen)
Cells: human THP-1 monocytic leukaemia cells, TNF dual-luciferase reporter clone, PMA-differentiated to macrophage-like cells
Knock-down reagent: siRNA pool against human genes, 50 nM
Duration: LPS for 4 h, given about 3 days after siRNA transfection
Conditions: bacterial LPS (TLR4 ligand), 10 ng/ml
Measured: 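TNF firefly reporter luminescence divided by renilla, normalised to the plate median, then turned into a robust z-score for each replicate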
Direction: TNF reporter robust z-score: higher = stronger TNF reporter response to LPS
Rule for the call: 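Each well counts as active if its z-score is over 2.8 or under -1.5; controls are left without a call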

gene | TNF reporter robust z-score
RIOK3 | 1.16
RIOK3 | 0.97
RIOK3 | -0.12
RIOK3 | -0.17
DENND6A | -1.45
DENND6A | -0.86
DENND6A | -0.06
DENND6A | -0.26
RHBDD1 | 2.71
RHBDD1 | 1.25
RHBDD1 | 2.47
RHBDD1 | 1.7
NUFIP1 | 0.6
NUFIP1 | -0.01
NUFIP1 | -0.04
NUFIP1 | 0.75
SLCO1A2 | 1.42
SLCO1A2 | 0.57
SLCO1A2 | 1.3
SLCO1A2 | 1.53
ISX | 2.21
ISX | 2.45
ISX | 4.46 (active)
ISX | 1.68
ZNF416 | 0.16
ZNF416 | 0.24
ZNF416 | 0.9
ZNF416 | 1.2
DIAPH1 | -0.64
DIAPH1 | -0.62
DIAPH1 | -0.4
DIAPH1 | -0.77
SNX9 | -2.24 (active)
SNX9 | -2.18 (active)
SNX9 | -1.7 (active)
SNX9 | -1.14
ZEB1 | -0.42
ZEB1 | 0.13
ZEB1 | -0.54
ZEB1 | -0.6
KLK5 | -0.32
KLK5 | -0.54
KLK5 | 0.2
KLK5 | 0.85
EBLN2 | 0.32
EBLN2 | 1.85
EBLN2 | 0.14
EBLN2 | 0.16

5 entries already listed, ordered by “TNF reporter robust z-score”, descending:
gene | TNF reporter robust z-score
RHBDD1 | 2.47
RHBDD1 | 1.7
NUFIP1 | 0.6
NUFIP1 | -0.01
NUFIP1 | -0.04
